No constants are given. Whether binding was seen depends on the method and setting. Some binding calls cover weakened binding; strength is not graded here. For some assays here: Sequences can lack the tags named with a protein.
What was measured:
[1] = target: Recombinant human ActRIIA-Fc (human) (UniProt P27037); test: SPR; ActRIIA-Fc or ActRIIB-Fc captured on a Series S Protein A chip (~70 RU); ActE titrated, 10-step two-fold dilution from 100 nM; HBS-EP+ (20 mM HEPES, 500 mM NaCl, 3.4 mM EDTA, 0.05% P-20, 0.5 mg/ml BSA), 25 C, Biacore T200, 50 ul/min; steady state fit; both purified
[2] = target: T1, Recombinant human ActRIIB-Fc (human) (UniProt Q13705); test: as above
T1 sequence: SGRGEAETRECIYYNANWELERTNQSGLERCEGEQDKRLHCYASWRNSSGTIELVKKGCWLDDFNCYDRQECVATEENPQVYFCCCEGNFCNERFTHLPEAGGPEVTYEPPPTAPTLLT

By UniProt entry, the sequences of proteins in these tests, tags left out.
UniProt P27037: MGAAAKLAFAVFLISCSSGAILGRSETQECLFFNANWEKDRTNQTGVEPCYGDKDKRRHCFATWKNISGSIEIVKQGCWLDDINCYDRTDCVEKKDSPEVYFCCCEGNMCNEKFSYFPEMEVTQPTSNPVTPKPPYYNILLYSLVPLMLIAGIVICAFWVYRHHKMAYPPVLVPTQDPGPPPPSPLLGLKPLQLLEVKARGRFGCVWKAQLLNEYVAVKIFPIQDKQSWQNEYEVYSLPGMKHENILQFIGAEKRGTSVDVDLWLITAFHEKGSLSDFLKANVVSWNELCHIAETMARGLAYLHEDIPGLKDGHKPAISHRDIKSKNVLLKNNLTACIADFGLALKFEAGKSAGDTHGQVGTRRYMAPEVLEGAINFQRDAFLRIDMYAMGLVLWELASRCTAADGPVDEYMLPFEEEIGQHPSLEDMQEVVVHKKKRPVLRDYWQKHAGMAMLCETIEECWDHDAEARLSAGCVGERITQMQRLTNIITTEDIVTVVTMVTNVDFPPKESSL

B1: Recombinant human ActE (bacterially derived, provided by R&D Systems) (ligand, UniProt P58166 237-350)
chain: TPTCEPATPLCCRRDHYVDFQELGWRDWILQPEGYQLNYCSGQCPPHLAGSPGIAASFHSAVFSLLKANNPWPASTSCCVPTARRPLSLLYLDHNGNVVKTDVPDMVVEACGCS
- binding [1]: binds weakly
- binding [2]: binds weakly
